Reference: publication doi:10.1101/2020.12.25.417865
Results are given in words; binding and its absence hold for the method and conditions named. Binding seen in cells or lysates may run through a third protein. Here binding means that the protein was enriched with, or labelled near, the bait; the list need not be complete. Where a sequence is shown, tags or fusion partners need not be part of it.

Protein sequences, listed by entry. Tags and fused reporters are not part of them. Residues count along the entry.
UniProt P32319, residues 22-1579: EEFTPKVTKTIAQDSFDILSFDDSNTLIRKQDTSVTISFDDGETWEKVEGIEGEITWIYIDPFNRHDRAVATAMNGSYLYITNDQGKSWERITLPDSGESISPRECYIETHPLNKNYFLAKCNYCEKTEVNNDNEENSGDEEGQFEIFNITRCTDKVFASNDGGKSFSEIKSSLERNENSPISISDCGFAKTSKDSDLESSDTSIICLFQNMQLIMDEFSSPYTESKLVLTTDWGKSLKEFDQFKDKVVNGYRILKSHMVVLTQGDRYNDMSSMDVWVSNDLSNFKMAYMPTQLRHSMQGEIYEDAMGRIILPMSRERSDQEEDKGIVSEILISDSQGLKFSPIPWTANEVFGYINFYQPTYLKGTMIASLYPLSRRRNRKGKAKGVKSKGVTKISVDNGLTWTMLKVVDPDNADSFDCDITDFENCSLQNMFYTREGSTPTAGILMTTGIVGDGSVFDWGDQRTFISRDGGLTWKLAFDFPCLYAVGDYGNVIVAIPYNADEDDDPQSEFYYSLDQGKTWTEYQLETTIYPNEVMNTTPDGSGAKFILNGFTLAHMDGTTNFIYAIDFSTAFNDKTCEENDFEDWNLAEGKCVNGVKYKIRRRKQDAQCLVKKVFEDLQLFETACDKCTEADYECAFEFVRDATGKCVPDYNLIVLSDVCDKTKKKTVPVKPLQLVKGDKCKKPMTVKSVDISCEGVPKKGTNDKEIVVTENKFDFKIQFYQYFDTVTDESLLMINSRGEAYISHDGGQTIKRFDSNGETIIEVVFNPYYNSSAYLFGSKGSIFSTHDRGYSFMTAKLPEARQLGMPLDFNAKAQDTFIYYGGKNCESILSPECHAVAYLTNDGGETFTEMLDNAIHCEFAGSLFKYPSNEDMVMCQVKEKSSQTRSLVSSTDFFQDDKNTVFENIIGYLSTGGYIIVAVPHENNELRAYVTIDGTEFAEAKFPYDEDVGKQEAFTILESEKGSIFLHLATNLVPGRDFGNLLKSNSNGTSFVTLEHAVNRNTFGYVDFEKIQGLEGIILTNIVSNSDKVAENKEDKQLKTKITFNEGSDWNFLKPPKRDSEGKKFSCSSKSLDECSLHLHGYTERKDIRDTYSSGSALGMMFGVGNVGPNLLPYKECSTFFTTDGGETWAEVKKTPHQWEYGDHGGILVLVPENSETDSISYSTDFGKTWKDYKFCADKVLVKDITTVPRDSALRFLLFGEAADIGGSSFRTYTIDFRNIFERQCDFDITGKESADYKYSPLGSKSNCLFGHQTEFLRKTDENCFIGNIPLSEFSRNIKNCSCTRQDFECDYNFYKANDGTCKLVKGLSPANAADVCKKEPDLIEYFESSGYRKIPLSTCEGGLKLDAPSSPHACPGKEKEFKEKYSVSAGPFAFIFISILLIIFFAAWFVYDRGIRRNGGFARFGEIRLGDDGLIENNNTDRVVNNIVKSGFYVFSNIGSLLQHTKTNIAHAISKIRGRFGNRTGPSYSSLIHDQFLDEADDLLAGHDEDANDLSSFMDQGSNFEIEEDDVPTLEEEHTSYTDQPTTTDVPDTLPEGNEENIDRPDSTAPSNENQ
UniProt Q04338: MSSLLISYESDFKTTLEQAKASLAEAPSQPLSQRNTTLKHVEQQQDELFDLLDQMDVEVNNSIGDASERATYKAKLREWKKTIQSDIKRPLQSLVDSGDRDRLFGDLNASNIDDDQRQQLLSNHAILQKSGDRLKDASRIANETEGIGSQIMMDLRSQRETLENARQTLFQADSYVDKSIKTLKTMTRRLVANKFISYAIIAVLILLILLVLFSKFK
UniProt P38932: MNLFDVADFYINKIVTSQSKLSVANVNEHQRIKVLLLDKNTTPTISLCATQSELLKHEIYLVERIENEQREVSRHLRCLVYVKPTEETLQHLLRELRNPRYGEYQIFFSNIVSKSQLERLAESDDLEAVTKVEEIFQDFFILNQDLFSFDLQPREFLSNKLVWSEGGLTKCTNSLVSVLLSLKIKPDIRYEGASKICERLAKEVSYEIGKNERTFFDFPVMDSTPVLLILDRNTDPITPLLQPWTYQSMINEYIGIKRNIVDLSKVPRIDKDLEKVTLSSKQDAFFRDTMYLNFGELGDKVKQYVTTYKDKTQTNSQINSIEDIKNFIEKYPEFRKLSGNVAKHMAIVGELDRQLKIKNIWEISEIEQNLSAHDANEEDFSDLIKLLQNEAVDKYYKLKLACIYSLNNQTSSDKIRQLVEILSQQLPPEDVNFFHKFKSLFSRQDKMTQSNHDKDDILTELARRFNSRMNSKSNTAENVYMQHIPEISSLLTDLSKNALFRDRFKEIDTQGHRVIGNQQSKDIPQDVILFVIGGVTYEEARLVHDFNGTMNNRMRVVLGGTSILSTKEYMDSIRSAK

T1: Drs2-GFP (S. cerevisiae) (UniProt P39524)
T1 sequence: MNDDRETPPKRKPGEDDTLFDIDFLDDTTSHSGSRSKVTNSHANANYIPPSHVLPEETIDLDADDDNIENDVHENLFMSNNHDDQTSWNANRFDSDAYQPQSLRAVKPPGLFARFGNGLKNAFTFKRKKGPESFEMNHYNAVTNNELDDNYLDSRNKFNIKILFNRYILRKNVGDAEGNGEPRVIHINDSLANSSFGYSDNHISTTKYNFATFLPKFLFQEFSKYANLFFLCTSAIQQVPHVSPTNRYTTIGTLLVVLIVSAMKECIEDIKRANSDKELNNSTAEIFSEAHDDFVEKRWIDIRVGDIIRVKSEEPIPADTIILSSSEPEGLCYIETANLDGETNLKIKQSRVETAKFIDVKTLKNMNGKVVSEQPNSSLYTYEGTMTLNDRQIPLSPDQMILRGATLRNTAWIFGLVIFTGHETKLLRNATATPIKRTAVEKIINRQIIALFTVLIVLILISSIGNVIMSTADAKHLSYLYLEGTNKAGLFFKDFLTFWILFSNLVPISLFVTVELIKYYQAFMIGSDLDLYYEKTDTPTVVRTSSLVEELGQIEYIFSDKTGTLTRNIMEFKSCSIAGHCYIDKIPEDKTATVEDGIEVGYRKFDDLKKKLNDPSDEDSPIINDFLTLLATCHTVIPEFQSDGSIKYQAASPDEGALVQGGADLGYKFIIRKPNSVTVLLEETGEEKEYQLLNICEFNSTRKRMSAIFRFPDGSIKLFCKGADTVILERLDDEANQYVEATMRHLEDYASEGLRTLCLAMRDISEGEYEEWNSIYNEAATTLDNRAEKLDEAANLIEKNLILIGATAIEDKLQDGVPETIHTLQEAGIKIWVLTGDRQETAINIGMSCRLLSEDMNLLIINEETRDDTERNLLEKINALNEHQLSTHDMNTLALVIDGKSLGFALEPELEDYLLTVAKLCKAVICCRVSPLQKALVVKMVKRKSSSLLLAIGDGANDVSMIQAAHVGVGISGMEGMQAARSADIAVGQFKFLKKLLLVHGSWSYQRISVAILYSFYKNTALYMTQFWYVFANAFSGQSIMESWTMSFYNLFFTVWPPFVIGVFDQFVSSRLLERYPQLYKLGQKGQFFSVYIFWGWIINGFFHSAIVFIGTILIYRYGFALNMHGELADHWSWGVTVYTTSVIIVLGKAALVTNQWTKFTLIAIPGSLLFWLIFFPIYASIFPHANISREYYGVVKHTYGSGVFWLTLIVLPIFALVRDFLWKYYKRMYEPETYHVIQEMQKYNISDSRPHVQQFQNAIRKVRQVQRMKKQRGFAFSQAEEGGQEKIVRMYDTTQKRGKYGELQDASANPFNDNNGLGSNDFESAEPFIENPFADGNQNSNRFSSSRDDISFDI

B1: Vps17 (protein, UniProt P32913 1-551)
chain: MTSAVPYDPYDDLDNNPFAEPQEEDSEPAATTTDGSSSMSEERVGTEQTAASVQDNGTANNIQNGLGEEGNATRSKTSNEHNENQQPSQPSERVILPERSDEKKKYTLLAKVTGLERFGSATGKKENPTIIFDCSTNLPTFRKQQYKNVKKSYEEFHQLFKYLNVAIQESFVPTLPSAYTTFGINSEEDRMKVTRNFQLWFNRLSQDPLIIRNEEVAFFIESDFNTYTPINKSKSLASGLKRKTLKQLAPPYDEITELAEFRPLVKSIYVVSQSLQEKLLRVSRNRKMMVQEENAFGQDFVNLDEHNKLYRRYGKILTAVGDIDSIIATMDMATLYDGLEWIVRDAYAVKEALTNRHFIMRNLVQAQQNSKAKQEQARRFRSRRDINPMKIDEALRQLKAAAKNEQVLTLKLQRITSNMIIERKQWISWYEEWIRSSIKEFTLRKIEYERKKLTLLERVRSDIRKADENGGLSRLGRHAVSNNNSDTSQTLKGDSWTGESNRKSQIPINKIAHTEFDDELFTEDDGYNSQDSDTTSLNARHAASLLGMSTK
B2: Rcy1 (protein, UniProt P39531 1-840)
chain: MDDLLKVPEIVTNIASYLSTVDYLSFQQVNKRVYAIINGKNDSKYWSLKLTRMGLQQVHSNEEEEITLLDENDNQNSLRIFEIYKSFTAQNSKKIFVKFYRCYNSYARKLYNNNLANFFPTSYSNDPLKQTRILNFIKKYNFSNKNDIETFTRIETNFNILREIFINSVLKESELNYQSNNLAAVARFMKILLISNEESNAIEFFKSKADLPPSLTVLPSNDELFWAEQPREEDSGGSTVIFNSKNLDTFLNQLRDFLNEKIKLADILFKDEFPVILQFIESFIQDILLDILNNILLSYSEFLKENGKDSKANYECVPELYFTFIKKFDTELNDSVNAGANFRKVVRDLLNLYLEPFVVNYMNQTTRVFESLINSQLANYDTQVQDKQREQNAKIYNTLKDQTDASSASNNELPNDLSIITETSKTVPEADSKPSTIHQSVHSTDISNDKLDFLSSFTKIFKFSNNENQRLKQQLQLAYNLNLISNNLQNIKSLISLDLCYKILQETSEKTDQIYKFHTIESLLPLIKLRCQEIFKILITQLNKNHVKPAFEKAILLLQKYNPNEIEQIEIKFNSLSPANTQVEPLVQFTELINIGDIILQMISIFYKNELIPKKIIDKNKDFLNDVIQLKKNFETSIDDFVAEGLNIGINKLMDEISFVFKTLQLPDDYNPPPPSRNSPIRDIKPTKCAIRVVELLSNHCFLLTGATDKGTIDVYQQEIGERFFNEIVKHLKKCFISTEGAIWLICDLNYFYDFIANKLKQKNVVPYFVGLKSIGQLYIISGKDSKELGKLISDLGKFNGIFTQEEIYEFVQRRSDWVRVRKDVEKVMYGLGIRDCCIM
B3: Cdc50 (protein, UniProt P25656 1-391)
chain: MVSLFKRGKAPPLTKEGPTSKKPPNTAFRQQRLKAWQPILSPQSVLPLLIFVACIFTPIGIGLIVSATKVQDLTIDYSHCDTKASTTAFEDIPKKYIKYHFKSKVENKPQWRLTENENGEQSCELQFEIPNDIKKSIFIYYKITNFYQNHRRYVQSFDTKQILGEPIKKDDLDTSCSPIRSREDKIIYPCGLIANSMFNDTFSQVLSGIDDTEDYNLTNKHISWSIDRHRFKTTKYNASDIVPPPNWMKKYPDGYTDENLPDIHTWEEFQVWMRTAAFPKFYKLTLKNESASLPKGKYQMNIELNYPISLFGGTKSFVLTTNGAIGGRNMSLGVLYLIVAGLCALFGIIFLVKLIFQPRAMGDHTYLNFDDEENEDYEDVHAENTTLREIL
B4: Akr1 (protein, UniProt P39010 1-764)
chain: MVNELENVPRASTLTNEEQTVDPSNNDSQEDISLGDSNEITSLASLKAIRSGNEEESGNEQVNHNDEAEEDPLLTRYHTACQRGDLATVKEMIHGKLLEVNNDGDSTEHITGLHWASINNRLSVVDFLVSQGADVNARAGALHATPLHWAARYGYVYIVDFLLKHGADPTMTDDQGFNLLHLSVNSSNIMLVLYVLFNVVSKGLLDIDCRDPKGRTSLLWAAYQGDSLTVAELLKFGASIKIADTEGFTPLHWGTVKGQPHVLKYLIQDGADFFQKTDTGKDCFAIAQEMNTVYSLREALTHSGFDYHGYPIKKWFKKSQHAKLVTFITPFLFLGIAFALFSHINPLFVIIVLFLLAIATNKGLNKFVLPSYGRMGVHNVTLLRSPLLSGVFFGTLLWVTIVWFFKVMPRTFSDEQYTNILMLVILVSVFYLFGQLVIMDPGCLPEETDHENVRQTISNLLEIGKFDTKNFCIETWIRKPLRSKFSPLNNAVVARFDHYCPWIFNDVGLKNHKAFIFFITLMESGIFTFLALCLEYFDELEDAHEDTSQKNGKCFILGASDLCSGLIYDRFVFLILLWALLQSIWVASLIFVQAFQICKGMTNTEFNVLMKESKSIGPDGLSFNENFNTTPEGFAPSIDPGEESNDTVLAPVPGSTIRKPRTCFGVCYAVTGMDQWLAVIKETIGIKDSTGHNVYSITSRIPTNYGWKRNVKDFWLTSDINAPLWRRILYPPSGSKALLNGIEVDYFKLYKLPNKDVEQGNDMV

Molecular target: T1, Drs2-GFP (S. cerevisiae)
Assay: cross-linking + affinity purification with mass spectrometry

binding, binds:
Pep1 (from UniProt P32319 22-1579)
Vti1 (from UniProt Q04338 1-217)
Vps45 (from UniProt P38932 1-577)

Molecular target: T1, Drs2-GFP (S. cerevisiae)
Assay: as above
Remark: another data set of the same source

binding, binds:
B1
B2
B3
B4
